Results are given in words; binding and its absence hold for the method and conditions named. Some entries that bind do so weakly or less than the wild type.
How the values were obtained:
[1] = biological target: human CD40 expressed on human B cell lines (Raji, Ramos) (human) (UniProt P25942); assay: western blot of Raji cell lysate
[2] = biological target: human CD40 expressed on human B cell lines (Raji, Ramos) (human) (UniProt P25942); assay: flow cytometry on Raji cells (figure legend)
[3] = biological target: human CD40 expressed on human B cell lines (Raji, Ramos) (human) (UniProt P25942); assay: western blot of Raji cell lysate (figure legend)
[4] = biological target: T1, … region of human CD40 (peptide microarray) (human); assay: peptide microarray, RM8G-1 at 1, 10 and 100 µg/ml
T1 sequence (peptide): ECLPCGESEF

Sequences of proteins named here, by UniProt entry; tags and fusion partners are left off. A change or cut given only in a name is not applied to a line headed by its entry. A line that says so, or that is headed by a name, gives the form on record, which may keep a tag or linker. Residues count along the entry.
UniProt P25942: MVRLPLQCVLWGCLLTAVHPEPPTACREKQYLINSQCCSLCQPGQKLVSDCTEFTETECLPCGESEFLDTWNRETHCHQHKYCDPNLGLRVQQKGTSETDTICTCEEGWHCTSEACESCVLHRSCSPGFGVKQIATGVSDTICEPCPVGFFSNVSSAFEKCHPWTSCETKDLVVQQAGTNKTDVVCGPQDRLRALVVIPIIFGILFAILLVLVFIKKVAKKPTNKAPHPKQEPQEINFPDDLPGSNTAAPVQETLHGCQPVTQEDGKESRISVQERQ
human CD40 expressed on human B cell lines (Raji, Ramos): residues 21-277 of P25942
human CD40 antigen: residues 21-193 of P25942
Monkey CD40 (Rhesus monkey) (F6SNI1, form named): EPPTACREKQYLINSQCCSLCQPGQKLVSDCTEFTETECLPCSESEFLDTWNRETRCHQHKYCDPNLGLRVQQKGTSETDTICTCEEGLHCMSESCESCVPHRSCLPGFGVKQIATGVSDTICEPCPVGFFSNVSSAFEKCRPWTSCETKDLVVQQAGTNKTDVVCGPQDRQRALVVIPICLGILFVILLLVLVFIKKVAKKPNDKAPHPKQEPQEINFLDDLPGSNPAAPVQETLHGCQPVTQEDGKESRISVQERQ

[5] = biological target: human CD40 expressed on human B cell lines (Raji, Ramos) (human) (UniProt P25942); assay: flow cytometry on Raji cells, RM8G-1 at 0.5 µg/ml
[6] = biological target: human CD40 antigen (human) (UniProt P25942); assay: ELISA on coated human CD40 antigen (figure legend)
[7] = biological target: Monkey CD40 (Rhesus monkey) (Rhesus monkey) (UniProt F6SNI1); assay: flow cytometry on Monkey CD40-CHO cells (figure legend)
[8] = biological target: Monkey CD40 (Rhesus monkey) (Rhesus monkey) (UniProt F6SNI1); assay: flow cytometry on Monkey CD40-CHO cells, RM8G-1 at 0.5 µg/ml
[9] = biological target: human CD40 antigen (human) (UniProt P25942); assay: ELISA, 100 ng human CD40 antigen coated per well, antibody 50 to 0.000282 µg/ml

Measured: binding

B1: anti-CD40 antibody RM8G-1 (antibody, V domains shown)
VH: LVQLKESGPGLVAPSQSLSITCTVSGFSLTDYGVGWIRQPPGKDLEWLGVMWGGGRTYYNAPLKSRLSISKDNSKSQVFLKMNSLQTDDTAMYYCVKTGQDYAVDYWGQGTSVTVSS
VL: DIVLTQSPASLAVSLGQRATISCRASKSVSTSAYSYMHWYQQKPGQPPKLLIYLASNLESGVPARFSGSGSGTDFTLNIHPVEEEDAATYYCQHSWDLPYTFGGGTKLEIK
notes: Mouse monoclonal antibody from hybridoma RM8G1 (KCLRF-BP-00336); also called RM RM8G-1; anti-CD40 RM8G-1
binds: all assays above
